# Literature values as cited in patent publication US20160115167A1, “BMP INHIBITORS AND METHODS OF USE THEREOF” (THE BRIGHAM AND WOMEN'S HOSPITAL, INC., priority 2013, published 2016).
# At least one compound was matched to its structure with a doubt left.
# Test system: BMP type I receptors, ALK2, ALK3, and ALK6
# Conditions: Yu et al. Nat. Chem. Biol. 4:33-41, 2008; cited from earlier work
smiles,measurement,value
c1cc(-c2cnn3cc(-c4ccc(OCCN5CCCCC5)cc4)cnc23)ccn1 [Dorsomorphin],"relative inhibition of ALK2, ALK3 and ALK6",inhibits ALK2 and ALK3 to a greater extent than it does ALK6
